Measurements from patent US20030053966A1, “Insoluble organic UV screening agents of aryl vinylene ketone type, and cosmetic use thereof” (priority 2001, published 2003).
Several values for one entry are separate records, joined by “and”; a condition that tells them apart may be missing. Identical values can stand only once. At least one structure is not confirmed: it was looked up by name or label, or the drawing left a doubt.

What was measured:
[1] = Particle size of ground aqueous dispersion (Mastersizer 2000 granulometer); assay type: physicochemical; details: 50% dispersion in water with 1% alkyl polyglucoside, ground for one hour in ball mill
[2] = UV absorption of the compound in solution; assay type: physicochemical
[3] = solution in DMSO, at λmax=346 nm
[4] = solution in DMSO, at λmax=364 nm

SMILES	number-average diameter distribution d [1]	λmax ([2]; solution in CHCl3)	E1% ([2]; solution in CHCl3, at λmax)	εmax ([2]; solution in CHCl3, at λmax)	E1% [2, 3]	εmax [2, 3]	E1% [2, 4]	εmax [2, 4]	λmax ([2]; solution in DMSO, two maxima)
CC12CCC(/C(=C\c3ccc(/C=C4/C(=O)C5(C)CCC4C5(C)C)cc3)C1=O)C2(C)C [Example 5, 1,4-phenylenebis(3-methylidenecamphor)]	0.77 μm	337 nm	960	38 720	–	–	–	–	–
O=C1/C(=C/c2ccc(/C=C3/C(=O)C4CC3C3CCCC43)cc2)C2CC1C1CCCC21 (stereo not drawn) [Example 4, 1,4-phenylenebis(methylideneketotricyclodecane)]	–	340 nm	1 080	43 100	–	–	–	–	–
O=C1/C(=C/c2ccc(/C=C3/C(=O)C4CCN3CC4)cc2)N2CCC1CC2 [Example 7, 1,4-phenylenebis(2-methylidenequinuclidinone)]	–	–	–	–	850	29 600	717	25 000	346 nm and 364 nm
CC12CCC(/C(=C\c3cccc(/C=C4/C(=O)C5(C)CCC4C5(C)C)c3)C1=O)C2(C)C [Example 3, 1,3-phenylenebis(3-methylidenecamphor)]	–	295 nm	1 040	41 500	–	–	–	–	–
